Experimental data as given in patent publication US11491460B2, “Porous cyclodextrin polymeric materials and methods of making and using same” (Cornell University, priority 2015, dated 2022).
At least one compound was matched to its structure with a doubt left.

Test: Batch adsorption kinetic studies of organic pollutants on P-CDP
Conditions: estimated from the equilibrium efficiency value from the batch kinetic studies

## C#C[C@]1(O)CC[C@H]2[C@@H]3CCc4cc(O)ccc4[C@H]3CC[C@@]21C [ethinyl estradiol]
  K, equilibrium constant: ~46,000^c Mol^−1
